According to PubChem BioAssay AID504332 (National Center for Advancing Translational Sciences (NCATS), 2011):
The whole screen tested about 350,000 compounds, of which about 31,000 (8.9%) were called active. A call without a number means that no potency is given here. Only results without a clear call are listed here; the source files them as inconclusive. The call rests on the fitted dose curve; in most records, active means well fitted inhibition curve with a large enough effect; inconclusive means small, poorly fitted or top-dose-only effect; inactive means no such curve, though single readings can be large or run the other way.

Chains of the proteins cited; added tags and fusions are not shown. Residues count along the entry.
UniProt Q96KQ7, 913-1193 limits assumed: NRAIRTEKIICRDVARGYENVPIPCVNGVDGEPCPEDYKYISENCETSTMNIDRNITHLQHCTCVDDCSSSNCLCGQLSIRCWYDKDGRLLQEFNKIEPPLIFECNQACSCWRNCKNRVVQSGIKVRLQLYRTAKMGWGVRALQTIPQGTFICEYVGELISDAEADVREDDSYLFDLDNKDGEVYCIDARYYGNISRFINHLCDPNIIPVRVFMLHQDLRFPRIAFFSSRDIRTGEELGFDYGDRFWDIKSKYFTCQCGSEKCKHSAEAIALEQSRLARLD

target: Histone-lysine N-methyltransferase EHMT2 (Homo sapiens) (UniProt Q96KQ7); assay: qHTS Assay for Inhibitors of Histone Lysine Methyltransferase G9a; details: G9a H3K9 monomethylation, AlphaScreen, 2 h; on potency: nearly all actives have a fitted effect of over 75% in size
Potency means the concentration at half of the fitted maximal effect.

SMILES	Potency
CN(CCCl)CCCl	inconclusive
CCC(=O)N(c1ccccc1)C1CCN(CCc2ccccc2)CC1	inconclusive: 1120 nM
